Taken from: PubChem BioAssay AID743121 (NCATS, 2013)

- Test: 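Knock-downs that sensitise breast cancer cells to camptothecin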 (primary screen)
- Cells: MDA-MB-231 cells, a human breast cancer line
- Reagents: single siRNA against human genes, 20 nM siRNA (0.8 pmol per well)
- Duration: 120 h (drug added 48 h after transfection, read 72 h later)
- Treatment: camptothecin 20 nM (about EC30) for 72 h; vehicle 0.1% DMSO in parallel plates
- Measured: 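CellTiter-Glo ATP signal, scaled to control siRNA as percent viability; sensitisation given as log2 of untreated divided by camptothecin-treated viability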
- Scale: log2 vehicle/camptothecin viability: higher = stronger sensitisation to camptothecin; viability with camptothecin and viability without drug: higher = more viable cells
- Call rule: 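Active genes have an RSA gene-level p-value below 0.001, computed from the ratios of their separate siRNAs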
The whole screen tested about 26,000 reagents; this is an unselected part. 167 of them (0.63%) count as active. 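Calls are per gene from RSA p-values that are not deposited; an individual active-marked siRNA can sensitise only weakly.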 The numbers tell different reagents against one gene apart.

The opening 5 records, ahead of the listing:
Target gene	siRNA no.	log2 vehicle/camptothecin viability	viability with camptothecin (% of control)	viability without drug (% of control)	Outcome
C3AR1	1	-0.00978	62.3	61.9	inactive
C3AR1	2	-0.37	109	84.4	inactive
C3AR1	3	-0.429	117	87.2	inactive
C3AR1	4	-0.193	94.9	83	inactive
HCRT	1	-0.0185	105	104	inactive

The listing, from the first entry:
Target gene	siRNA no.	log2 vehicle/camptothecin viability	viability with camptothecin (% of control)	viability without drug (% of control)	Outcome
C3AR1	1	-0.00978	62.3	61.9	inactive
C3AR1	2	-0.37	109	84.4	inactive
C3AR1	3	-0.429	117	87.2	inactive
C3AR1	4	-0.193	94.9	83	inactive
HCRT	1	-0.0185	105	104	inactive
HCRT	2	-0.4	78.2	59.2	inactive
HCRT	3	-0.0274	93.4	91.7	inactive
HCRT	4	0.0305	97	99.1	inactive
SCN2B	1	-0.252	107	89.9	inactive
SCN2B	2	0.114	31.9	34.5	inactive
SCN2B	3	-0.295	105	85.8	inactive
SCN2B	4	-0.0403	91.2	88.7	inactive
RBP4	1	-0.538	57.4	39.5	inactive
RBP4	2	-0.00678	51	50.7	inactive
RBP4	3	0.334	33.7	42.5	inactive
RBP4	4	-0.492	48.7	34.6	inactive
PLPP1	1	-0.414	65.3	49	inactive
PLPP1	2	-0.316	77.7	62.5	inactive
PLPP1	3	0.139	45	49.5	inactive
PLPP1	4	0.319	75.3	94	inactive
SLC4A7	1	-0.305	107	86.5	inactive
SLC4A7	2	-0.144	49.5	44.8	inactive
SLC4A7	3	-0.111	44	40.8	inactive
SLC4A7	4	-0.381	112	86.3	inactive
GPC2	1	0.371	19.2	24.8	inactive
GPC2	2	0.449	53.8	73.5	inactive
GPC2	3	0.526	1.99	2.86	inactive
GPC2	4	-0.158	9.07	8.13	inactive
GRIP2	1	0.0287	51.9	53	inactive
GRIP2	2	0.279	41.7	50.6	inactive
GRIP2	3	-0.0115	57.4	57	inactive
NLRC3	1	1.48	18.9	52.7	inactive
NLRC3	2	-0.13	74.5	68.1	inactive
NLRC3	3	-0.176	68.3	60.5	inactive
NLRC3	4	-0.00924	119	118	inactive
KMT2C	1	0.277	62.5	75.7	inactive
KMT2C	2	-0.252	35.6	29.9	inactive
KMT2C	3	-0.32	65	52	inactive
TRIM46	1	0.167	55.1	61.9	inactive
TRIM46	2	-0.379	84	64.6	inactive
TRIM46	3	-0.481	56.8	40.7	inactive
TRIM46	4	0.679	34.7	55.6	inactive
ZDHHC3	1	-0.114	153	141	inactive
ZDHHC3	2	-0.265	72.4	60.3	inactive
ZDHHC3	3	-0.096	103	96.2	inactive
ZDHHC3	4	-0.205	105	91.3	inactive
ACP5	1	-0.103	79.3	73.8	inactive
ACP5	2	-0.191	98.2	86	inactive
ACP5	3	-0.427	76.7	57.1	inactive
ACP5	4	-0.0468	75.5	73.1	inactive
TFEC	1	-0.27	83.5	69.2	inactive
TFEC	2	0.249	70.8	84.2	inactive
TFEC	3	-0.298	90.7	73.8	inactive
EVI5L	1	-0.268	57.6	47.9	inactive
EVI5L	2	-0.225	59.4	50.8	inactive
EVI5L	3	-0.256	17.5	14.6	inactive
EVI5L	4	-0.325	117	93.6	inactive
GLRX	1	-0.404	84.9	64.2	inactive
GLRX	2	-0.187	80.7	70.9	inactive
GLRX	3	-0.217	86.5	74.5	inactive
GLRX	4	0.0505	26.3	27.2	inactive
CUL5	1	0.241	70.6	83.4	inactive
CUL5	2	-0.625	80.9	52.5	inactive
CUL5	3	0.114	103	112	inactive
CUL5	4	-0.341	58	45.8	inactive
PMCH	1	0.00085	44.5	44.5	inactive
PMCH	2	0.0572	38.7	40.3	inactive
PMCH	3	-0.351	98.3	77.1	inactive
PMCH	4	-0.147	104	94.3	inactive
